Data reported in the supplement of paper PMC3334620.
Over roughly 33,000 sequences, “E-score (-0.5 to 0.5)” has its median near -0.016; the highest 2% begin near 0.3. The list shows a part of the results.

What follows are sequences tested against T1, Yer184c (UniProt P39961) (assay: PBM E-score (8-mer binding enrichment) (E-score (-0.5 to 0.5)); higher = stronger / more preferred TF binding). Details: protein concentration: 100 nM; construct: GST-full length.
T1 sequence: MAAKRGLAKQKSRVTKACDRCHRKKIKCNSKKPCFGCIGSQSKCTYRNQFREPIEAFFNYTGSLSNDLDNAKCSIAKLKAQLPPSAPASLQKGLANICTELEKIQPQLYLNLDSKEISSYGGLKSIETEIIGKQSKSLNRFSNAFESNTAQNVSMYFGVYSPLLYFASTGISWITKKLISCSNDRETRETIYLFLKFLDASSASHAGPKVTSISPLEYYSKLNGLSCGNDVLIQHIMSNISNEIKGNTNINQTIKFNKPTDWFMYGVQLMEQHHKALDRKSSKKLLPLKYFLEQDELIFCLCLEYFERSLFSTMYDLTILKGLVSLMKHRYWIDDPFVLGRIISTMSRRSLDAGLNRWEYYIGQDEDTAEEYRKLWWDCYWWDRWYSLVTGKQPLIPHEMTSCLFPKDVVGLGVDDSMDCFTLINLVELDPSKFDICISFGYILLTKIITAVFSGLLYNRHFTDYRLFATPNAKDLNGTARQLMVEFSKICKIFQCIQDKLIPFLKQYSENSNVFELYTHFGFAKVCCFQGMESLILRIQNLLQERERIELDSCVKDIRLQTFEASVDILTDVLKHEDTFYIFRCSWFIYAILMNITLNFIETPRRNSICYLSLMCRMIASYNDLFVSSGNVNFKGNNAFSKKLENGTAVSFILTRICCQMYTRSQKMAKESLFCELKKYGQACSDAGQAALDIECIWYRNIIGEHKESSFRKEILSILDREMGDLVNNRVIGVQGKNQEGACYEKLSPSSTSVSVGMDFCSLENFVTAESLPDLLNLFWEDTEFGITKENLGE
Summary of the method: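 Universal all-10-mer Agilent arrays, fresh or stripped once, were converted to double-stranded form by primer extension. GST-tagged yeast transcription factors from PURExpress in vitro transcription/translation, full-length or DNA-binding domain only, were applied at about 100-200 nM and detected with fluorescent anti-GST. After masliner normalisation, the Universal PBM Analysis Suite scored each ungapped eight-base word together with its reverse complement by E-score.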

Sequence | PBM E-score
GAAAACTA | 0.0973
ATATGGCC | -0.0384
AGCTAAAT | -0.0985
AGAGTTGC | 0.0599
GGAAACAC | 0.208
ACGTGGCT | -0.235
GCAAGGCA | -0.0428
AACACACG | -0.00676
TGCACCAA | -0.291
CATACACC | 0.00657
TATGTTCA | 0.184
AGGCTGCC | -0.125
AACGTTGA | 0.0798
CAAGGGTA | -0.254
CGATTGTA | 0.16
ATTGCCTC | 0.00377
GCTCGCCA | -0.0673
CATTTCAG | 0.0207
GCCGCAGA | 0.0738
ACTGGTAA | 0.0562
GCTCCCAA | -0.107
AAACGTGA | 0.00433
AGCAGTTG | -0.0709
AATGCTTG | -0.113
GTCCGCCA | -0.0698

Sequence | PBM E-score
TTGCTAAA | 0.0301
GCAGATGC | -0.149
CACAGGCG | -0.21
AAGCCAAT | -0.124
TAACAAAA | 0.219
GGCCACAC | -0.0153
TCGTTGCA | -0.0315
ACATTGTA | -0.0761
CACTCCAC | -0.2
AGACTCCT | -0.225
TCACGAAA | 0.173
ATCTAGGC | -0.236
CGCCGGCC | 0.35
ACGCTTCG | -0.109
ACCGCGGC | 0.344
CAACCTGC | -0.0979
ACTACCGC | 0.126
AAGGCTCG | -0.187
CCCTTCGG | 0.0548
AGACTCCC | -0.317
TGCCTCAA | -0.0229
CCTATTAC | -0.2
CGCGATCA | -0.0459
CTCTCCAC | -0.286
GCGAATGA | 0.149

Sequence | PBM E-score
ACGTTTCT | -0.0299
AATCCAAC | -0.0638
CACCTCTG | -0.253
ACGACCCT | -0.201
AGGTGGTA | -0.0629
CGACGAAC | 0.0631
ACTTTCTG | 0.137
CGCTTATA | 0.0756
CGTCTTTC | -0.0906
AAGCAAAG | -0.152
CTGTGTCA | -0.0684
AGATGCCC | -0.09
GCAGTAGA | -0.109
CGACAGAA | 0.149
CGGCTACG | 0.154
ACAAAGGG | -0.238
GAGTCTAA | 0.0375
CATCCGAG | 0.212
GGCACACA | 0.0566
CGTGTTAA | 0.0721
GCTTTCAA | 0.131
CGTGCCAC | -0.183
AGAAGTCA | 0.0449
ATACTGTC | 0.0534
CTCCTGCA | -0.21

Sequence | PBM E-score
AGGCGCGC | 0.0287
AGAGAACG | 0.0412
ATGTTTAA | 0.162
GCCAGGGA | -0.284
ATCACAAA | -0.0606
CACAGCCG | 0.186
AGTCCTTA | -0.107
CCGTTAAA | 0.157
CTCAGAAC | 0.0913
AACATCGA | 0.0284
ATTGCTAG | 0.0345
ACAGGCTC | -0.186
GGAGCTCA | -0.0805
CGGTTCAA | 0.0335
GGGGTAAC | -0.138
AGCGTGGA | -0.227
ATGCGCAT | 0.0844
CGATGAGC | 0.0433
AATAGTAC | 0.149
ATCGGGCG | -0.0399
CGTTTGAA | 0.0743
CGTACGAG | -0.154
GCGTGAAC | -0.065
AAGGTGGC | -0.159
CTATGAAG | 0.0367

Sequence | PBM E-score
ATACGTTC | -0.219
CAAATCGA | -0.0226
GGTGCTTA | -0.0113
ACTCTATC | -0.096
ACCCGGCA | 0.187
GACGCCGC | 0.0636
CCGCAATA | 0.151
CAACAAAG | 0.0753
ACAGTACG | -0.0206
GATACGAA | 0.0954
ATTTTGCG | 0.109
GCGCCCCC | -0.383
CCGTCGAG | 0.197
AAATAATT | 0.253
AAGGGTTA | -0.125
GCTCTGTA | -0.0523
AGTAAAAA | 0.149
AGTAGGGA | -0.0279
CTACGCTC | -0.267
ATCTCCTC | -0.11
AATATTCC | 0.342
AATGAACC | 0.055
ACCACCGT | -0.0332
ACGGGGGG | -0.35
AGCCTCAC | -0.218

Sequence | PBM E-score
CGGCGCAC | 0.216
CCGAATGA | 0.321
ACGAATCA | 0.0706
CGGCCATC | 0.0642
AATATGCT | 0.0287
CAATCCTC | -0.113
AGAAGTTG | -0.133
AGTGGGGG | -0.385
ATGGAGCC | -0.203
TAATGTGA | 0.148
CACCGGCG | 0.238
AATACTGT | 0.188
AACCTGAT | 0.061
AATATAAG | 0.297
CCAGCTTA | -0.0115
GGCAGAGA | 0.0289
TGACGCAA | -0.173
AACTGCAT | 0.00033
AACTCCTA | -0.0126
AGATATTG | 0.0412
GAGGACTC | -0.298
CCGTTTGC | 0.0779
CAAGGCAC | -0.205
GTAGTTCA | -0.0304
CCCCGGGC | 0.217

Sequence | PBM E-score
CTGTGGAC | -0.252
TATAAGCA | 0.0411
GTACCTGA | 0.0813
AAGCACTG | -0.0258
CAGTTTTA | -0.0165
ACTAAAGA | -0.0181
ACCCTAGA | -0.153
ACTCAACA | 0.00285
GGACCGCA | 0.107
CGTGAGGA | -0.187
CTTACCGC | 0.12
AGACGCAG | -0.0432
CTACCAAC | -0.00162
AGTTACCC | -0.0391
GCCAATGA | -0.259
GACGCTGC | -0.0825
AGAGATGC | -0.142
ATGTCCAG | -0.0601
ATCCGGAT | 0.442
ATCCGGTA | 0.206
AGAATTTC | -0.0445
ACCGTACG | -0.159

Single values from the results shown.
CGTGAGGA – PBM E-score: -0.187
CTACCAAC – PBM E-score: -0.00162
ATCCGGTA – PBM E-score: 0.206
CTTACCGC – PBM E-score: 0.12
AGTTACCC – PBM E-score: -0.0391
